# Assay results as given in the supplement of paper PMC6411743.
# Sequences of proteins named here, by UniProt entry; tags and fusion partners are left off. A change or cut given only in a name is not applied to a line headed by its entry.
# UniProt O95166, whole entry: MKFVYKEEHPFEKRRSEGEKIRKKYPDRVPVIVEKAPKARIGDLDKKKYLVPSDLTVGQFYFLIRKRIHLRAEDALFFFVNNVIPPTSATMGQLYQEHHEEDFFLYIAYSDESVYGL
# UniProt P49321, whole entry: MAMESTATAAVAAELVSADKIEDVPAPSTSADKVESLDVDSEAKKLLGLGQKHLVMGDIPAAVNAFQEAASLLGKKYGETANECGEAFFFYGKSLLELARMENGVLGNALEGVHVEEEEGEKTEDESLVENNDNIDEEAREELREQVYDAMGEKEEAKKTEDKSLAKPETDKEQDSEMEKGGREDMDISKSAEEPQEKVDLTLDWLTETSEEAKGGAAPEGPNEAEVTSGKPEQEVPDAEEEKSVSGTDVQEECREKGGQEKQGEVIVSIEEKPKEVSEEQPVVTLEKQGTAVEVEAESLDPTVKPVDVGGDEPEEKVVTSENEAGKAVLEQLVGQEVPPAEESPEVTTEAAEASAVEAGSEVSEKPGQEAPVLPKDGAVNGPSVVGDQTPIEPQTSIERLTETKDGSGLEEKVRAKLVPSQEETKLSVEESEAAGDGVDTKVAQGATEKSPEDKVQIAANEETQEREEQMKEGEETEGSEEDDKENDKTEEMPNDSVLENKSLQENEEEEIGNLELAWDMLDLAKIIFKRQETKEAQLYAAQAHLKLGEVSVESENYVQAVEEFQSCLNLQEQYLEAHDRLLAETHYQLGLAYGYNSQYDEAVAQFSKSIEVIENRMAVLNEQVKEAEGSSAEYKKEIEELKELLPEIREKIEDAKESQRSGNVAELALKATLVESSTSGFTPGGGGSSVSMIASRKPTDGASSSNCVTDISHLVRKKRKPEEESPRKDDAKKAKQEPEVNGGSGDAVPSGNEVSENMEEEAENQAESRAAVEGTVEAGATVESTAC
# UniProt H0UI80: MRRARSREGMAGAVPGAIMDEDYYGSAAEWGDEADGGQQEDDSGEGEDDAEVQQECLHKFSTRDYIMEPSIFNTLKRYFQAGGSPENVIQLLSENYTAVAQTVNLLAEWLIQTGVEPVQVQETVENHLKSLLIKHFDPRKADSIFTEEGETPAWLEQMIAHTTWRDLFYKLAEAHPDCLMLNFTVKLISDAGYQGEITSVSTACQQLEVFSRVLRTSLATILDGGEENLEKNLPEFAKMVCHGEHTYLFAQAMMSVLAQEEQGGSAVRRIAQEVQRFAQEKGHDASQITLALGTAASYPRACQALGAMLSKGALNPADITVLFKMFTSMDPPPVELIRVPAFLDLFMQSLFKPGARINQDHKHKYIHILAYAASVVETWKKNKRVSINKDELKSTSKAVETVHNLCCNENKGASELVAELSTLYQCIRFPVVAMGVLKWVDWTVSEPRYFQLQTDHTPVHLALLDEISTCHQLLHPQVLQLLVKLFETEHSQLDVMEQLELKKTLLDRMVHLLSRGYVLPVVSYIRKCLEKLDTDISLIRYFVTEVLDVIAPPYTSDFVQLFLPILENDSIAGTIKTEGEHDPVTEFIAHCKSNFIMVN
# UniProt O75153: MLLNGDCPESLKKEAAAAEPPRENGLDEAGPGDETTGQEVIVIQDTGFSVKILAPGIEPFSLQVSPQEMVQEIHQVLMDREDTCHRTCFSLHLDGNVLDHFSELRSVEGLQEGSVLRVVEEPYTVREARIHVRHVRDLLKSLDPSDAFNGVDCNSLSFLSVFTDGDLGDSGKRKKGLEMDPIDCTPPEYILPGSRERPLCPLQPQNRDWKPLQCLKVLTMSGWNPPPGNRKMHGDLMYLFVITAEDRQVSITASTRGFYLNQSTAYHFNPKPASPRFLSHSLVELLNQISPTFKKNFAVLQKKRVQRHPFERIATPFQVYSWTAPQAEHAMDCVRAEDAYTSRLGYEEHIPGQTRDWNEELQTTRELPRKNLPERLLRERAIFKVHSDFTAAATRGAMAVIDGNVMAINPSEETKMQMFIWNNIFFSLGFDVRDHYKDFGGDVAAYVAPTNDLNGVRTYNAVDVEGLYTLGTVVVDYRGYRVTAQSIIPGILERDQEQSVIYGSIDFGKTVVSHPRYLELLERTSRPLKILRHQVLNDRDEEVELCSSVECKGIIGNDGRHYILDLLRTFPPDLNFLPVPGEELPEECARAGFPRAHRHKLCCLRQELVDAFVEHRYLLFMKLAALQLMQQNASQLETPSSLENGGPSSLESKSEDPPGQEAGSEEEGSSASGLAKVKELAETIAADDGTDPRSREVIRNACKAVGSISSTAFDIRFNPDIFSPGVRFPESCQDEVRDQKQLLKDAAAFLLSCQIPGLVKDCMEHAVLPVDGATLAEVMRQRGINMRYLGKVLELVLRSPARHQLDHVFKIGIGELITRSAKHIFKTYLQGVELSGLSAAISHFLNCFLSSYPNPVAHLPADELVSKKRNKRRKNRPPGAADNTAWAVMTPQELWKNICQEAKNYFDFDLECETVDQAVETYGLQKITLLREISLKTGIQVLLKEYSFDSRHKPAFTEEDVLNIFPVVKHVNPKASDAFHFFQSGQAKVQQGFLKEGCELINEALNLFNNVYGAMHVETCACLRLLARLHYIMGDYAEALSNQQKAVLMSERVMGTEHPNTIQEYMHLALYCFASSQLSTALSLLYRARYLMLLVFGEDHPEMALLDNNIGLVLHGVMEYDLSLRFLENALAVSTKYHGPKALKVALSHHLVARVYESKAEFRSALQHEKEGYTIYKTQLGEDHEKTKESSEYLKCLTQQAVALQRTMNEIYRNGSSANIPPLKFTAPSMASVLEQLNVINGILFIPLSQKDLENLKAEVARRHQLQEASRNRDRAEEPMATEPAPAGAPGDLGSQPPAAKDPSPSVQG
# UniProt Q7Z4W1: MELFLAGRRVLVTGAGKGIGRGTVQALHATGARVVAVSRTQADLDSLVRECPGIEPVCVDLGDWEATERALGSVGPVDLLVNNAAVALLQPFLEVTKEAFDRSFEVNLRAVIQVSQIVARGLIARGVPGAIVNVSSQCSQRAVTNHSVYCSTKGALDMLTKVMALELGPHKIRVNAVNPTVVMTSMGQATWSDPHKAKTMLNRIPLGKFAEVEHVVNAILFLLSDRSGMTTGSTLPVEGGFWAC
# UniProt Q9GZU7: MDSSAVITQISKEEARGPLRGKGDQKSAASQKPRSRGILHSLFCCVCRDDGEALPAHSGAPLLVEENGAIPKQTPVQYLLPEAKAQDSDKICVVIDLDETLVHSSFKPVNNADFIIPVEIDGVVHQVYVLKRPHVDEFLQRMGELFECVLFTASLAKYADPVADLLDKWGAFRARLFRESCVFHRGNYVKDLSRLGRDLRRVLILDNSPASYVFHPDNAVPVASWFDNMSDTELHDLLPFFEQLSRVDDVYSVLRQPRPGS
# UniProt Q96J42: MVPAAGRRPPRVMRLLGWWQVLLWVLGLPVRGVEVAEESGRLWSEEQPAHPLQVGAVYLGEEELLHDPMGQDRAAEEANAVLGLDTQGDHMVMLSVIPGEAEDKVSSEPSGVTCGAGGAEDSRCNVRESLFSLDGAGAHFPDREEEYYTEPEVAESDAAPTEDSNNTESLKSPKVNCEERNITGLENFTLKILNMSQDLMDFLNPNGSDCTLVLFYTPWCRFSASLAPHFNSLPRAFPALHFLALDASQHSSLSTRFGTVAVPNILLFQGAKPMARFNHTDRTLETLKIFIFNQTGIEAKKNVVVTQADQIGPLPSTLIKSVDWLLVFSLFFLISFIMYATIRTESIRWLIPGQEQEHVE
# UniProt P51648: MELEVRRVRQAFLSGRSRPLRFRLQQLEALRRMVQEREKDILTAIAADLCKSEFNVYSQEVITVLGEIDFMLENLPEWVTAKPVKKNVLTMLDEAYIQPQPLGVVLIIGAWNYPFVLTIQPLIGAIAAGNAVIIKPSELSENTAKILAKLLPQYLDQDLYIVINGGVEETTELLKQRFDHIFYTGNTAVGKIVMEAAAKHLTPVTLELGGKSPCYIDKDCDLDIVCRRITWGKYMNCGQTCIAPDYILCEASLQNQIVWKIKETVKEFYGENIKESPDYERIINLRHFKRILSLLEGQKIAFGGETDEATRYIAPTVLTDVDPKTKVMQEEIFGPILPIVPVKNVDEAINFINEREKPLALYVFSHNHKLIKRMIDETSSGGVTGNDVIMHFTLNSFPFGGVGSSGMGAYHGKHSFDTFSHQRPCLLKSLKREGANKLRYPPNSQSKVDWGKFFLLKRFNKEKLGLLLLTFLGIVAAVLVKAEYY
# UniProt Q66K89: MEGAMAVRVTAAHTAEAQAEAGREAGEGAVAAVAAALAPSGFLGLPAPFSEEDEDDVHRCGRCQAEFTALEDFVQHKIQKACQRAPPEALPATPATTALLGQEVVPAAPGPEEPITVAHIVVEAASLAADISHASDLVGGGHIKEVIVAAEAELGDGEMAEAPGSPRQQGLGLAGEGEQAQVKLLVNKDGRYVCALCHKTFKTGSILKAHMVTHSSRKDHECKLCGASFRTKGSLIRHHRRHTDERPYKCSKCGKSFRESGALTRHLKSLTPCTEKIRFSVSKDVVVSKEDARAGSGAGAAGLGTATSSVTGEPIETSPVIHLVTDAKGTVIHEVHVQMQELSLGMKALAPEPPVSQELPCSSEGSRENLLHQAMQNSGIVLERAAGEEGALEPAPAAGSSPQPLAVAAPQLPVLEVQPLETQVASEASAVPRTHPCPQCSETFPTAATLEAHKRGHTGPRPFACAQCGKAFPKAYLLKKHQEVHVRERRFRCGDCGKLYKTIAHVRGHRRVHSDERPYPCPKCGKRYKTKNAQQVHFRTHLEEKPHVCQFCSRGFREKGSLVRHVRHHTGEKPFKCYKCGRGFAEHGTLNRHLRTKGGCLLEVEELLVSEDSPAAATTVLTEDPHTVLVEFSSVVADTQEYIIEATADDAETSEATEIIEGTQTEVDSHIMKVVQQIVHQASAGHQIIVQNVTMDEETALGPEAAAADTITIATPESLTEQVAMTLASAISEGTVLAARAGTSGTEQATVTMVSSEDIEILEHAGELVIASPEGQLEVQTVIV
# UniProt Q5JPH6: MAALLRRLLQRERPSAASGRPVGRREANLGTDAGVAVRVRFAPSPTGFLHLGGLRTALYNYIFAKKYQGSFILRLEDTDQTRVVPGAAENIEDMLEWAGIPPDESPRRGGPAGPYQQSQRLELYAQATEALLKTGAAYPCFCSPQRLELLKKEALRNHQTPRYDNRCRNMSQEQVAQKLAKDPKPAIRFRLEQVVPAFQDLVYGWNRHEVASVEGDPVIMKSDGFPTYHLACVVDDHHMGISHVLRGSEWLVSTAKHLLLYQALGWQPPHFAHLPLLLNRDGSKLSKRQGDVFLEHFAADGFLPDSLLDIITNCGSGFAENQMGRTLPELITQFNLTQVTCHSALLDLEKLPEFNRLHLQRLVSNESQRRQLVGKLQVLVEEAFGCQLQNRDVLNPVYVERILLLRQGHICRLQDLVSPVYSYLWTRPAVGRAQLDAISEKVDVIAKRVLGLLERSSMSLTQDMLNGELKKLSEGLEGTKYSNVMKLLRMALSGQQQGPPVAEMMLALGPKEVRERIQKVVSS
# UniProt Q70J99: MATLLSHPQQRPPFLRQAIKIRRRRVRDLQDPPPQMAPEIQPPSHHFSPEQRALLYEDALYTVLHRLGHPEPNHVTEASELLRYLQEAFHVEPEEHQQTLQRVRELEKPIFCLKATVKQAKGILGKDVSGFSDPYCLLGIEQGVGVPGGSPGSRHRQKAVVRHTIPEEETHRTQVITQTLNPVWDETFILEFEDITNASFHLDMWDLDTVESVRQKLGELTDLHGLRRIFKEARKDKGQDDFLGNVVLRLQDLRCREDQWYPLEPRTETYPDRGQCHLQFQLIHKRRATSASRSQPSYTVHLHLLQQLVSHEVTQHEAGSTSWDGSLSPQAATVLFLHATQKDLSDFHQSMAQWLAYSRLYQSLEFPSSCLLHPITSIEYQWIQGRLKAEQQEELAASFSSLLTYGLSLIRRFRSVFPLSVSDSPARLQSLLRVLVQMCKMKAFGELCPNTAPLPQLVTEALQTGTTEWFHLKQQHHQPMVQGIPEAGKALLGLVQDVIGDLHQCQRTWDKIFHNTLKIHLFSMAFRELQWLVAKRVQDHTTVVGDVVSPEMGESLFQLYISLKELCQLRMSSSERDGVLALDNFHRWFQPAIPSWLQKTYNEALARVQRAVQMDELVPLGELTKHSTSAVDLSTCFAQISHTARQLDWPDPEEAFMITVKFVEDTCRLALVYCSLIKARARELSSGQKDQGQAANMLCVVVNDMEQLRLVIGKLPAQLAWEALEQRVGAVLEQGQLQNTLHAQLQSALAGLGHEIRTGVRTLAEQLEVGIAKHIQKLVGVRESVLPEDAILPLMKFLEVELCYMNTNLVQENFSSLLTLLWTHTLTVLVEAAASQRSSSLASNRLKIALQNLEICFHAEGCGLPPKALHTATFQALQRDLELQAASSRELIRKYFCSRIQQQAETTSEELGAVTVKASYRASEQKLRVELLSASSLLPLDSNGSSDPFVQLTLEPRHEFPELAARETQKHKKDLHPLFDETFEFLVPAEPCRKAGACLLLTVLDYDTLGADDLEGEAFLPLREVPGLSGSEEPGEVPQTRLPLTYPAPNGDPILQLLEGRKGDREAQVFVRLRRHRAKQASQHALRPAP
# ± gives the standard deviation of the averaged measurements. The entries are a selection whose mix differs from that of the whole data set.
# Compound: Nc1ncnc2c1ncn2[C@@H]1O[C@H](COP(=O)(O)OP(=O)(O)OP(=O)(O)O)[C@@H](O)[C@H]1O [adenosine triphosphate]
# Experiment: NP40-soluble protein abundance relative to vehicle (solubility fold change) (ratio); higher = more soluble protein in presence of ATP
# In short: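 Each value is a fold change relative to the detergent-processed vehicle, calculated per replicate from vsn-normalised intensities. Jurkat crude lysate received eight concentrations (0.1 to 10 mM) for 10 min at room temperature and 3 min at 37 °C, then was solubilised in 0.8% NP40 with benzonase (60 min, 4 °C). The ultracentrifuged supernatant was TMT-labelled and run by LC-MS/MS in three independent experiments.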
Target,NP40-soluble protein abundance (concentration: 1mM),NP40-soluble protein abundance (concentration: 2mM),NP40-soluble protein abundance (concentration: 4mM),NP40-soluble protein abundance (concentration: 6mM),NP40-soluble protein abundance (concentration: 8mM),NP40-soluble protein abundance (concentration: 10mM)
H6UMI1 and related entries (UniProt O95166),0.91 ± 0.082,0.932 ± 0.0017,0.87 ± 0.027,0.987 ± 0.038,0.909 ± 0.023,0.913 ± 0.056
H0YDS9 and related entries (UniProt P49321),0.918 ± 0.082,0.904 ± 0.047,0.873 ± 0.04,0.946 ± 0.053,0.8728 ± 0.0076,0.844 ± 0.049
H0UI80 and related entries (UniProt X6RLT1+Q8IXH7+H0UI80),0.964 ± 0.045,0.984 ± 0.033,0.94 ± 0.061,0.968 ± 0.064,0.93 ± 0.053,0.932 ± 0.037
I3L2B0 and related entries (UniProt O75153),0.995 ± 0.055,0.999 ± 0.037,0.987 ± 0.047,0.972 ± 0.054,0.981 ± 0.03,0.983 ± 0.049
J3KS22 and related entries (UniProt Q7Z4W1),0.937 ± 0.065,0.947 ± 0.064,0.891 ± 0.04,0.89 ± 0.1,0.911 ± 0.035,0.926 ± 0.048
H7C1Z7 and related entries (UniProt Q9GZU7),0.921 ± 0.067,1.04 ± 0.09,1.19 ± 0.23,1.16 ± 0.15,1.05 ± 0.13,1.06 ± 0.11
K4DI83 and related entries (UniProt Q9HCN3),1.04 ± 0.11,0.966 ± 0.12,1.06 ± 0.14,1.01 ± 0.16,0.963 ± 0.09,0.922 ± 0.13
H0Y997 and related entries (UniProt Q96J42),0.823 ± 0.015,0.935 ± 0.036,0.86 ± 0.12,0.906 ± 0.066,0.844 ± 0.02,0.813 ± 0.053
J3QRD1 and related entries (UniProt P51648),1.03 ± 0.17,1.01 ± 0.11,1 ± 0.082,0.904 ± 0.12,1.02 ± 0.018,1 ± 0.063
H3BUJ7 and related entries (UniProt Q66K89),0.963 ± 0.21,1.02 ± 0.024,1.1 ± 0.13,0.946 ± 0.12,1.14 ± 0.17,1.13 ± 0.029
J3QS41 and related entries (UniProt P42694),1.05 ± 0.064,1.03 ± 0.036,1.05 ± 0.067,1.01 ± 0.033,1.04 ± 0.042,1.06 ± 0.039
H3BTB7 and related entries (UniProt Q5JPH6),0.989 ± 0.057,0.958 ± 0.052,0.962 ± 0.044,0.95 ± 0.096,0.957 ± 0.062,0.934 ± 0.036
M0QX46 and related entries (UniProt Q6UUV9),1.02 ± 0.09,1.01 ± 0.025,1.02 ± 0.048,0.978 ± 0.069,0.969 ± 0.041,0.9412 ± 0.008
K7EQ37 and related entries (UniProt Q70J99),1.04 ± 0.098,1.02 ± 0.068,1.01 ± 0.057,0.935 ± 0.094,1.02 ± 0.056,0.987 ± 0.052
J3KP75 and related entries (UniProt O75167),0.928 ± 0.07,0.964 ± 0.035,0.971 ± 0.058,0.985 ± 0.034,0.936 ± 0.026,0.981 ± 0.081

# Reformatted: entries from further up
Target | NP40-soluble protein abundance (concentration: 1mM) | NP40-soluble protein abundance (concentration: 2mM) | NP40-soluble protein abundance (concentration: 4mM) | NP40-soluble protein abundance (concentration: 6mM) | NP40-soluble protein abundance (concentration: 8mM) | NP40-soluble protein abundance (concentration: 10mM)
H0YDS9 and related entries (UniProt P49321) | 0.918 ± 0.082 | 0.904 ± 0.047 | 0.873 ± 0.04 | 0.946 ± 0.053 | 0.8728 ± 0.0076 | 0.844 ± 0.049
H0UI80 and related entries (UniProt X6RLT1+Q8IXH7+H0UI80) | 0.964 ± 0.045 | 0.984 ± 0.033 | 0.94 ± 0.061 | 0.968 ± 0.064 | 0.93 ± 0.053 | 0.932 ± 0.037
